Results: PMC13360168
No constants are given. Whether binding was seen depends on the method and setting. Some binding calls cover weakened binding; strength is not graded here.

Sequences of proteins named here, by UniProt entry; tags and fusion partners are left off.
UniProt Q9SXZ2: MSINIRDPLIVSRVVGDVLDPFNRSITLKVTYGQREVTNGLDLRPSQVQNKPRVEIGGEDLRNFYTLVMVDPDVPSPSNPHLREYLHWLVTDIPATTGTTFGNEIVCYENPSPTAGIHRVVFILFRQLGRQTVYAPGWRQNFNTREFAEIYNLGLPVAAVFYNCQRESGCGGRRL

Target: FLOWERING LOCUS T (FT) (Arabidopsis thaliana) (UniProt Q9SXZ2)
Assay: two-hybrid; Matchmaker GAL4 Two-Hybrid System (Clontech); CLF in pGADT7, FT in pGBKT7; yeast strain AH109; growth on solid synthetic medium without leucine, tryptophan, histidine and adenine

B1: CURLY LEAF (CLF) (protein, UniProt P93831 1-902)
chain: MASEASPSSSATRSEPPKDSPAEERGPASKEVSEVIESLKKKLAADRCISIKKRIDENKKNLFAITQSFMRSSMERGGSCKDGSDLLVKRQRDSPGMKSGIDESNNNRYVEDGPASSGMVQGSSVPVKISLRPIKMPDIKRLSPYTTWVFLDRNQRMTEDQSVVGRRRIYYDQTGGEALICSDSEEEAIDDEEEKRDFLEPEDYIIRMTLEQLGLSDSVLAELASFLSRSTSEIKARHGVLMKEKEVSESGDNQAESSLLNKDMEGALDSFDNLFCRRCLVFDCRLHGCSQDLIFPAEKPAPWCPPVDENLTCGANCYKTLLKSGRFPGYGTIEGKTGTSSDGAGTKTTPTKFSSKLNGRKPKTFPSESASSNEKCALETSDSENGLQQDTNSDKVSSSPKVKGSGRRVGRKRNKNRVAERVPRKTQKRQKKTEASDSDSIASGSCSPSDAKHKDNEDATSSSQKHVKSGNSGKSRKNGTPAEVSNNSVKDDVPVCQSNEVASELDAPGSDESLRKEEFMGETVSRGRLATNKLWRPLEKSLFDKGVEIFGMNSCLIARNLLSGFKSCWEVFQYMTCSENKASFFGGDGLNPDGSSKFDINGNMVNNQVRRRSRFLRRRGKVRRLKYTWKSAAYHSIRKRITEKKDQPCRQFNPCNCKIACGKECPCLLNGTCCEKYCGCPKSCKNRFRGCHCAKSQCRSRQCPCFAADRECDPDVCRNCWVIGGDGSLGVPSQRGDNYECRNMKLLLKQQQRVLLGISDVSGWGAFLKNSVSKHEYLGEYTGELISHKEADKRGKIYDRENCSFLFNLNDQFVLDAYRKGDKLKFANHSPEPNCYAKVIMVAGDHRVGIFAKERILAGEELFYDYRYEPDRAPAWAKKPEAPGSKKDENVTPSVGRPKKLA
For B1, the binding was “binds”.
